# Laboratory results: PubChem BioAssay AID504786 (Drosophila RNAi Screening Center, 2011)
# Assay: 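Fly genes required for HIF-dependent transcription when hypoxia is mimicked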 (primary screen)
# System: Drosophila S2 cells with a stable HIF luciferase reporter
# Knock-down reagent: long dsRNA against Drosophila genes, about 0.2 µg dsRNA per well of a 384-well plate
# Time to read-out: three days of knock-down, then 20 h of DFO before reading
# Challenge: desferrioxamine (DFO) at 100 µM, an iron chelator that mimics hypoxia, for 20 h
# Measured: 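HIF reporter luminescence in cells given 100 µM DFO for 20 h, using the mouse ldh-a hypoxia-response element, scored as per-plate z-scores; higher means greater loss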
# Reading the numbers: z-score: higher = stronger loss of HIF reporter signal
# The screen tested about 21,000 reagents; shown is a random part of those that have a named target and a result. 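Primary screen; positive scores mean lost reporter signal, so the sign may be inverted from the usual convention.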 A plus sign joins genes that one reagent is predicted to hit.
The opening 10 entries, ahead of the listing:
target gene,PubChem SID,"z-score, replicate 1","z-score, replicate 2","z-score, replicate 3","z-score, replicate 4"
CG7739,SID104190702,-0.4,-0.5,,
Boot (Bootlegger),SID104186204,-0.3,-0.4,,
beat-IIIb (beaten path IIIb),SID104182227,-0.3,-0.7,,
Sar1 (Secretion-associated Ras-related 1),SID104196841,-0.4,-0.8,,
Jhbp3 (Juvenile hormone binding protein 3),SID104192039,-0.2,0,,
CG17544,SID104182416,-0.3,-0.6,,
CG14667,SID104192045,-0.4,-0.1,,
Ir62a (Ionotropic receptor 62a),SID104188042,-0.2,-0.3,,
Dhdds (Dehydrodolichyl diphosphate synthase subunit),SID104197548,-0.1,0.3,,
Treh (Trehalase),SID104184340,-0.4,-0.9,,

Main list, repeating the preview:
target gene,PubChem SID,"z-score, replicate 1","z-score, replicate 2","z-score, replicate 3","z-score, replicate 4"
CG7739,SID104190702,-0.4,-0.5,,
Boot (Bootlegger),SID104186204,-0.3,-0.4,,
beat-IIIb (beaten path IIIb),SID104182227,-0.3,-0.7,,
Sar1 (Secretion-associated Ras-related 1),SID104196841,-0.4,-0.8,,
Jhbp3 (Juvenile hormone binding protein 3),SID104192039,-0.2,0,,
CG17544,SID104182416,-0.3,-0.6,,
CG14667,SID104192045,-0.4,-0.1,,
Ir62a (Ionotropic receptor 62a),SID104188042,-0.2,-0.3,,
Dhdds (Dehydrodolichyl diphosphate synthase subunit),SID104197548,-0.1,0.3,,
Treh (Trehalase),SID104184340,-0.4,-0.9,,
PK1-R (Pyrokinin 1 receptor),SID104196369,-0.4,-0.8,,
CG7634,SID104191635,-0.2,-0.2,,
Corin,SID104186610,-0.4,-0.5,,
tamo,SID104184238,-0.2,-0.1,,
Nmdar1 (NMDA receptor 1),SID104191863,-0.1,0,,
Nmdar1 (NMDA receptor 1),SID104192148,-0.3,-0.1,,
TTLL5 (Tubulin tyrosine ligase-like 5),SID104193973,-0.2,0,,
Ugt36A1 + CG15418,SID104180224,0,-0.3,,
vig2,SID104194194,0,0.1,,
Itgbn (Integrin betanu subunit),SID104183285,-0.3,-0.2,,
CanB2 (Calcineurin B2),SID104187147,-0.7,-0.3,,
Prosbeta2 (Proteasome beta2 subunit),SID104191049,5.8,4.3,,
CG2924,SID104198317,-0.4,-0.4,,
CG32631,SID104199560,-0.1,-0.5,,
CG18081,SID104190086,-0.1,-0.2,,
Nepl19 (Neprilysin-like 19),SID104194667,-0.6,0,,
Alms1b + Alms1a,SID104198351,-0.1,-0.3,,
CG17896,SID104198294,-0.2,0,,
ple (pale),SID104191175,-0.3,-0.1,,
CG17344,SID104182399,-0.2,-0.4,,
mtSSB (mitochondrial single stranded DNA-binding protein),SID104196797,-0.5,-0.5,,
pyd3,SID104195251,-0.3,-0.5,-0.1,0
Dad1 (Defender against apoptotic cell death 1),SID104182055,0,1.1,,
CG11362,SID104183898,-0.4,-0.2,,
CG10321,SID104183853,-0.5,-0.5,,
CG9498,SID104183027,-0.1,-0.8,,
CG16734,SID104194935,0.3,1.8,,
CG2694,SID104198262,-0.1,-0.7,,
Bap60 (Brahma associated protein 60kD),SID104199129,4.4,3.8,,
CG14020,SID104182142,-0.4,-0.2,,
Ugt35A1 (UDP-glycosyltransferase family 35 member A1),SID104196684,-0.3,-0.3,,
Dlish (Dachs ligand with SH3s),SID104185808,-0.3,-0.3,,
Cpr62Bc (Cuticular protein 62Bc),SID104188337,-0.4,-0.5,,
CG9410 + CG15908,SID104184768,-0.2,0.1,,
CG9410 + CG15908,SID104184793,-0.4,-0.3,,
Calx (Na/Ca-exchange protein),SID104193249,3.9,-0.4,,
Calx (Na/Ca-exchange protein),SID104193251,-0.2,-0.2,,
Calx (Na/Ca-exchange protein),SID104196391,-0.2,-0.2,,
Akap200 (A kinase anchor protein 200),SID104181656,-0.1,0,,
CG14401,SID104182177,-0.2,-0.4,,
Atf-2 (Activating transcription factor-2),SID104183922,0,0,,
Atf-2 (Activating transcription factor-2),SID104184205,0.1,-0.4,,
CG7080,SID104195985,-0.3,-0.6,,
boca,SID104186200,-0.4,-0.9,,
mfas (midline fasciclin),SID104196789,-0.2,-0.5,,
CG14282,SID104194555,-0.4,0.3,,
CG15385,SID104180191,-0.1,-0.1,,
CG42788,SID104195122,-0.5,-0.5,,
CG42788,SID104195931,-0.2,-0.2,,
CG42788,SID104195944,-0.2,-0.5,,
M7BP (Myosin-7a binding protein),SID104185724,-0.3,-0.3,,
Cht9 (Chitinase 9),SID104183871,-0.2,-0.6,,
CG12828,SID104185969,-0.3,-0.4,,
CG10164,SID104193989,-0.5,-0.1,,
CG15386 + CG42371,SID104180192,-0.2,0,,
to (takeout),SID104196878,-0.1,-0.2,,
RpL12 (Ribosomal protein L12),SID104184136,9.2,6.3,,
Nup37 (Nucleoporin 37kD),SID104194211,-0.4,-0.6,,
CR13656 (pseudo),SID104193497,-0.5,0.3,,
CR13656 (pseudo),SID104194448,-0.2,-0.8,,
Grip84 (Gamma-tubulin ring protein 84),SID104200040,0,0.2,,
Hsp23 (Heat shock protein 23),SID104190980,-0.4,-0.5,,
CG10000,SID104193962,-0.3,-0.5,,
TotC (Turandot C),SID104193241,-0.2,-0.3,,
CG11158,SID104199181,-0.1,0.1,,
aft (adrift),SID104187368,0,0.8,,
CG9837,SID104196365,-0.3,-0.9,,
psidin (phagocyte signaling impaired),SID104195452,0.1,0,,
Acp53C14c (Accessory gland protein 53C14c),SID104185418,0.2,-0.1,,
CG17234,SID104180282,-0.3,-0.2,,
Ugt49B1 (UDP-glycosyltransferase family 49 member B1),SID104184253,-0.1,-0.2,,
bab2 (bric a brac 2),SID104187942,0,1.2,,
bab2 (bric a brac 2),SID104188172,0.8,-0.5,,
